# Data from PubChem BioAssay AID588590 (National Center for Advancing Translational Sciences (NCATS), 2011).
# The chains behind the UniProt entries cited, without tags or fusion partners. Where a name states a change or a piece, a line headed by the entry shows the natural chain unless it says otherwise.
# UniProt Q9UNA4: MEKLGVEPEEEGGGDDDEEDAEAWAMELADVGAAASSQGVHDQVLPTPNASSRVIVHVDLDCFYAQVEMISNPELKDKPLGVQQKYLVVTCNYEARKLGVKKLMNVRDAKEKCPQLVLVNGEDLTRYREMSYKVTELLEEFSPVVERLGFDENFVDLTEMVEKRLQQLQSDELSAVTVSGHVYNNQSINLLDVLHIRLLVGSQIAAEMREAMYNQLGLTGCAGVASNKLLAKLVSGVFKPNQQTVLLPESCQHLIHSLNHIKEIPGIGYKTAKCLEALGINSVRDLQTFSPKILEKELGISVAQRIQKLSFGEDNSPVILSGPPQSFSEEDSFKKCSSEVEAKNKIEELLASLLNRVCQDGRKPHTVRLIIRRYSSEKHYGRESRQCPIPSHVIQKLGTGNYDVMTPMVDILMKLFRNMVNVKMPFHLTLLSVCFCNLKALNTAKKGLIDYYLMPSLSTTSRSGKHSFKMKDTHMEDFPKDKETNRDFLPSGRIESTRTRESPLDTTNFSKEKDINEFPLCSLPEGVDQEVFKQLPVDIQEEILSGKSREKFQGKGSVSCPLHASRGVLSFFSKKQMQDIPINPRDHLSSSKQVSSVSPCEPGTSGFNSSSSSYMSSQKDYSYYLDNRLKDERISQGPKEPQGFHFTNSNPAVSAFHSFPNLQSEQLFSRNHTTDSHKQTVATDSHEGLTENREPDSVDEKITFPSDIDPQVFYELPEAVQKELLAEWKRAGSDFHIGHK
# The whole screen tested about 390,000 compounds, of which about 4,000 (1%) were called active. Inconclusive results, whose numbers are uncertain, are shown with a selection of clear calls. Calls come from the whole dose curve; as a rule, active = well fitted inhibition curve with a large enough effect; inconclusive = small, poorly fitted or top-dose-only effect, or another doubt; inactive = no such curve, though single readings can be large or run the other way. A potency beside an inconclusive call is a rough fit, not a confirmed value.
# Target: DNA polymerase iota (Homo sapiens) (UniProt Q9UNA4)
# Assay: qHTS for Inhibitors of Polymerase Iota
# Details: Pol iota fluorescent replication assay, 10 min; series mostly up to 115 µM; activity, negative = inhibition: at the top concentration
# How it was run: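 Fluorescent replication assay read twice, at 0 min and 10 min after adding 50 nM (final) substrate. Enzyme (10 nM) and compounds were first incubated 15 min at room temperature; enzyme-free buffer wells were negative controls.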
# Potency is the fitted concentration of half-maximal effect.
Structure (SMILES),Potency,"activity, negative = inhibition"
Cc1cccc(/C=C/C(=O)c2ccc(NC3=NCCCS3)cc2)c1,"inconclusive: 0.794 µM [inhibitor, full curve, poor fit]",–
CC(=O)c1ccc(NC(=O)c2ccc([N+](=O)[O-])o2)cc1,"inconclusive: 20 µM [inhibitor, single point]",–
O=[N+]([O-])c1cc(Cl)cc(/C=N/NC(=S)Nc2cc(S(=O)(=O)N3CCOCC3)ccc2Cl)c1O,"inconclusive: 12.6 µM [inhibitor, partial curve, poor fit]",–
CC(=O)Nc1ccc(NC(=O)CS(=O)(=O)c2cn(CC(=O)N3CCCCC3)c3ccccc23)cc1,"inconclusive: 79.4 µM [inhibitor, partial curve]",–
CCOCc1nnc(NC(=O)c2cc(OC)c(OC)c(OC)c2)s1,–,inactive: 107%
CC(C)CN(C(=O)/C=C/c1nc2ccccc2s1)C1CCS(=O)(=O)C1 (centres undefined),"inconclusive: 56.2 µM [inhibitor, partial curve, poor fit]",–
COc1cc(C(=O)OC2CCCCC2=O)cc(OC)c1C (centres undefined),"inconclusive: 28.2 µM [inhibitor, partial curve, poor fit]",–
CCC(=O)Nc1ccc2nc(SCC(=O)N3CCOCC3)sc2c1,"inconclusive: 89.1 µM [inhibitor, single point]",–
Cc1ccc(C(=O)/C=C/c2cc(Br)cc(Br)c2O)o1,"inconclusive: 14.1 µM [inhibitor, partial curve, poor fit]",–
CCOCC(=O)Nc1ccc(S(=O)(=O)Nc2nccs2)cc1,–,inactive: -17.3%
CCCn1c(=N)n(CC(O)c2ccc(C)cc2)c2ccccc21 (centres undefined),"inconclusive: 79.4 µM [inhibitor, single point]",–
COc1ccc(/C=C2\CCCC(C(=O)C(F)(F)F)=C2O)cc1,"inconclusive: 39.8 µM [inhibitor, partial curve, poor fit]",–
CN(C)CCNS(=O)(=O)c1ccc(N2CCN(c3ccc(F)cc3)CC2)c([N+](=O)[O-])c1,–,inactive: 14.2%
CC(C)CCNC(=O)c1ccc2nc[nH]c2c1,–,inactive: -9.12%
CCc1ccc2nc(NC(=O)CSCc3c(C)noc3C)sc2c1,"inconclusive: 11.2 µM [inhibitor, full curve, poor fit]",–
CCC(C)NC(=O)CNC(=S)N(Cc1ccc(F)cc1)C1CCCCC1 (centres undefined),"inconclusive: 89.1 µM [inhibitor, single point]",–
CSCCC(NS(=O)(=O)c1ccc(Cl)cc1)C(=O)OCC(=O)c1c(C)[nH]c2ccccc12 (centres undefined),–,inactive: -1.92%
CCn1c(NC(C)=O)nc2ccccc21,"inconclusive: 11.2 µM [inhibitor, partial curve, poor fit]",–
O=C(CN1CCN(C(=O)c2ccc(OCc3cn4ccccc4n3)cc2)CC1)Nc1cccc(F)c1,"inconclusive: 39.8 µM [inhibitor, partial curve]",–
O=C(COc1ccc(F)cc1)Nc1ccc(S(=O)(=O)N(Cc2ccccc2)c2ccccc2)cc1,–,inactive: 22.8%
COc1c2ccc(OCC/C(C)=C/C(=O)C=C(C)C)cc2nc2occc12,"inconclusive: 56.2 µM [inhibitor, partial curve, poor fit]",–
O=C(COC(=O)c1ccccc1OCCOc1ccccc1)Nc1ccccc1Br,–,inactive: 13.5%

Structure (SMILES),Potency,"activity, negative = inhibition"
Cc1cc(C)cc(NC(=O)C(Sc2nnc(C)c(=O)[nH]2)c2ccccc2)c1 (centres undefined),"inconclusive: 31.6 µM [inhibitor, partial curve, poor fit]",–
O=C(COC(=O)COc1ccccc1[N+](=O)[O-])NCc1ccc2c(c1)OCO2,"inconclusive: 89.1 µM [inhibitor, partial curve, poor fit]",–
C#CCOCCOCCOCCNc1nc(N2CCOCC2)nc(N2CCN(C(=O)[C@H]([C@@H](C)CC)n3cc(CCCCN)nn3)CC2)n1,"inconclusive: 11.2 µM [inhibitor, partial curve, poor fit]",–
C=CCOC(=O)C1=C(C)N=c2s/c(=C3\C(=O)N(CC(=O)O)c4ccccc43)c(=O)n2C1c1ccc(OC)cc1 (centres undefined),"inconclusive: 31.6 µM [inhibitor, single point]",–
O=C(COC(=O)c1ccc(Br)o1)Nc1ccc2[nH]c(=O)[nH]c2c1,"inconclusive: 22.4 µM [inhibitor, single point]",–
O=[N+]([O-])c1ccc(-c2ccc(/C=N/n3cnnc3)o2)c(Br)c1,"inconclusive: 17.8 µM [inhibitor, full curve, poor fit]",–
CN1CCN(C2=C(NS(=O)(=O)c3ccccc3)C(=O)c3ccccc3C2=O)CC1,–,inactive: 30.2%
O=C1/C(=C/c2ccc(O)c(O)c2)Oc2cc(O)ccc21,"inconclusive: 14.1 µM [inhibitor, partial curve, poor fit]",–
CC(Nc1cc(=O)n(C)c(=O)[nH]1)c1ccccc1 (centres undefined),"inconclusive: 39.8 µM [inhibitor, single point]",–
COc1cc(/C=C2\SC(=N)N(c3ccc4c(c3)OCO4)C2=O)cc(OC)c1O,"inconclusive: 31.6 µM [inhibitor, partial curve]",–
CCN(C(=O)COC(=O)Cn1c(=O)oc2ccccc21)c1c(N)n(Cc2ccccc2)c(=O)[nH]c1=O,–,inactive: -0.986%
CC1=C(c2ccc(Cl)cc2)S(=O)(=O)N=C1N1CCC(C(=O)NCCc2ccco2)CC1,"inconclusive: 63.1 µM [inhibitor, partial curve, poor fit]",–
Cc1ccc(CNc2ncccc2-c2nc(-c3ccc(Cl)cc3)no2)cc1,–,inactive: 28.1%
Cc1ccccc1N1CCN(Cc2cc3c(cc2[N+](=O)[O-])OCO3)CC1,"inconclusive: 10 µM [inhibitor, full curve, poor fit]",–
CN1CCCC1CCOC(C)(c1ccccc1)c1ccc(Cl)cc1 (centres undefined),"inconclusive: 100 µM [inhibitor, single point]",–
O=C(CC(c1ccc(F)cc1)c1ccco1)N1CCCC1 (centres undefined),–,inactive: 7.65%
O=C(NCCN1CCOCC1)C1(C(F)(F)F)C/C(=C\Cc2ccccc2)CCCO1 (centres undefined),"inconclusive: 39.8 µM [inhibitor, single point]",–
CCCCNc1c2c3c(cccc3n(C)c1=O)C(=O)c1ccccc1-2,"inconclusive: 6.31 µM [inhibitor, partial curve, poor fit]",–
NC(=O)N/N=C/c1ccc(N2CCOCC2)s1,–,inactive: -6.33%
Nc1c(C(=O)O)sc2nc(-c3ccccc3)cc(-c3ccc(Cl)cc3)c12,"inconclusive: 39.8 µM [inhibitor, partial curve, poor fit]",–
CCc1ccc(S(=O)(=O)N2CC(=O)Nc3ccccc32)cc1,"inconclusive: 89.1 µM [inhibitor, single point]",–
Fc1cccc(F)c1CN1CCN(c2ncccn2)CC1,"inconclusive: 12.6 µM [inhibitor, full curve, poor fit]",–

Structure (SMILES),Potency,"activity, negative = inhibition"
CCOC(=O)/C(=C/C=C/c1ccccc1)NC(=O)c1ccccc1,"inconclusive: 89.1 µM [inhibitor, partial curve, poor fit]",–
Cc1nnc(-c2cccc(C(F)(F)F)c2)nc1N1CCOCC1,–,inactive: 65.1%
CCN(c1ccc(OC)cc1)S(=O)(=O)c1nnc(NC(=O)c2ccco2)s1,"inconclusive: 20 µM [inhibitor, single point]",–
Cc1cc(Br)ccc1NC(=O)C1C2CCC(O2)C1C(=O)O (centres undefined),–,inactive: 16.7%
CSc1nc(=S)cc(C)[nH]1,"inconclusive: 20 µM [inhibitor, single point]",–
COc1ccc(C(=O)/C=C/c2cccnc2)c(OC)c1,"inconclusive: 63.1 µM [inhibitor, single point]",–
CC(C)CCN1CCN(C2CCN(c3ccccc3)CC2)CC1CCO (centres undefined),"inconclusive: 31.6 µM [inhibitor, single point]",–
COC(=O)c1nc2n(n1)C(c1cc(OC)ccc1OC)C=C(c1ccc(Br)cc1)N2 (centres undefined),"inconclusive: 89.1 µM [inhibitor, single point]",–
CCCCOc1ncnc2c1[nH]c1ccc(OC)cc12,"inconclusive: 112 µM [inhibitor, partial curve, poor fit]",–
CCOc1ccc(NC(=O)c2ccc(NC(=O)CN3C(=O)C(=O)N(CC(C)C)C3=O)cc2)cc1,–,inactive: 21.4%
CC(=O)c1cccc(OCC(=O)N(C)CC(=O)NCc2ccco2)c1,active: 7.94 µM,–
O=C(NC1CCCCCC1)c1cc(-c2ccccn2)nc2ccccc12,–,inactive: -6.28%
O=[N+]([O-])c1cc([N+](=O)[O-])c2nonc2c1Nc1ccc(O)cc1,active: 2.51 µM,–
N#Cc1c(-c2ccccc2)c(-c2ccccc2)nn(CC(=O)NNC(=O)Nc2ccc(Cl)cc2)c1=O,"inconclusive: 25.1 µM [inhibitor, partial curve, poor fit]",–
O=C(O)Cc1ccc(NC(=O)Nc2cccc(Cl)c2)cc1,"inconclusive: 3.98 µM [inhibitor, partial curve, poor fit]",–
COc1cc(NC(C)CCCNC(C)C)c2ncccc2c1OC (centres undefined),"inconclusive: 25.1 µM [inhibitor, single point]",–
CCOc1ccc(CCN2C(=O)C(=O)N([C@@H](CC(C)C)CN3CCC[C@@H]3CN3C(=O)C(=O)NC[C@@H]3Cc3ccccc3)C[C@@H]2CC(C)C)cc1,"inconclusive: 100 µM [inhibitor, single point]",–
O=C(COC(=O)c1cccc(S(=O)(=O)NCc2ccccc2)c1)c1ccc2c(c1)OCCO2,"inconclusive: 70.8 µM [inhibitor, partial curve, poor fit]",–
c1ccc(-c2ccncc2)nc1,"inconclusive: 70.8 µM [inhibitor, partial curve]",–
CCOC(=O)c1ccc(NC(=O)c2nc[nH]c2C(=O)N[C@@H](Cc2ccccc2)C(=O)OC(C)(C)C)cc1,"inconclusive: 79.4 µM [inhibitor, single point]",–

# Of the compounds above, seven contain a nitro group on carbon.
Structure (SMILES),Potency,"activity, negative = inhibition"
CC(=O)c1ccc(NC(=O)c2ccc([N+](=O)[O-])o2)cc1,"inconclusive: 20 µM [inhibitor, single point]",–
O=[N+]([O-])c1cc(Cl)cc(/C=N/NC(=S)Nc2cc(S(=O)(=O)N3CCOCC3)ccc2Cl)c1O,"inconclusive: 12.6 µM [inhibitor, partial curve, poor fit]",–
CN(C)CCNS(=O)(=O)c1ccc(N2CCN(c3ccc(F)cc3)CC2)c([N+](=O)[O-])c1,–,inactive: 14.2%
O=C(COC(=O)COc1ccccc1[N+](=O)[O-])NCc1ccc2c(c1)OCO2,"inconclusive: 89.1 µM [inhibitor, partial curve, poor fit]",–
O=[N+]([O-])c1ccc(-c2ccc(/C=N/n3cnnc3)o2)c(Br)c1,"inconclusive: 17.8 µM [inhibitor, full curve, poor fit]",–
Cc1ccccc1N1CCN(Cc2cc3c(cc2[N+](=O)[O-])OCO3)CC1,"inconclusive: 10 µM [inhibitor, full curve, poor fit]",–
O=[N+]([O-])c1cc([N+](=O)[O-])c2nonc2c1Nc1ccc(O)cc1,active: 2.51 µM,–

# 2 of the compounds above, with bars between the fields.
Structure (SMILES) | Potency | activity, negative = inhibition
CCN(c1ccc(OC)cc1)S(=O)(=O)c1nnc(NC(=O)c2ccco2)s1 | inconclusive: 20 µM [inhibitor, single point] | –
Cc1cc(Br)ccc1NC(=O)C1C2CCC(O2)C1C(=O)O (centres undefined) | – | inactive: 16.7%
